Measurements as given in article PMC5446404.
No constants are given. Whether binding was seen depends on the method and setting. In cells and extracts the contact can be indirect.

Target: T1, fortilin, endogenous in PC3 cells (human (endogenous in PC3)) (UniProt P13693)
T1 sequence: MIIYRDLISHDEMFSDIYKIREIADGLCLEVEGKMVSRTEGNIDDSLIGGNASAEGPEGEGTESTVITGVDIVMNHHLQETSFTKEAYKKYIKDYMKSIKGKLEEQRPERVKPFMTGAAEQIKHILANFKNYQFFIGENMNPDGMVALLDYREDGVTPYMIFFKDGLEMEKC
Test: co-IP; cleared total lysates of PC3 cells treated with 2 nM EGF-SubA for 24 h (also TG-treated cells); rabbit monoclonal anti-fortilin (EPR5540) or rabbit IgG, Dynabeads Protein G, washed four times, immunoblot

binding: no binding
B1: NQO2, endogenous in PC3 cells (protein, UniProt P16083 1-231)
chain: MAGKKVLIVYAHQEPKSFNGSLKNVAVDELSRQGCTVTVSDLYAMNLEPRATDKDITGTLSNPEVFNYGVETHEAYKQRSLASDITDEQKKVREADLVIFQFPLYWFSVPAILKGWMDRVLCQGFAFDIPGFYDSGLLQGKLALLSVTTGGTAEMYTKTGVNGDSRYFLWPLQHGTLHFCGFKVLAPQISFAPEIASEEERKGMVAAWSQRLQTIWKEEPIPCTAHWHFGQ
